No constants are given. Whether binding was seen depends on the method and setting. Binding seen in cells or lysates may run through a third protein. Some results given as binding are weak or reduced against the parent protein; the word gives no strength.
Experiments:
[1] = target: Flag-tagged HDAC1 (Homo sapiens (Human)) (UniProt Q13547); assay: co-IP: anti-Flag IP from lysate of HEK293T cells co-transfected with Flag-HDAC1 and MBD2, immunoblot
[2] = target: Mbd3, endogenous, in mouse ESCs and mouse embryonic fibroblasts (mouse) (UniProt Q9Z2D8); assay: co-IP of Chd4 (Mi2b) from secondary Mbd3+/+ fibroblasts 3 days after Dox induction in 2i/LIF, immunoblot

Sequences of proteins named here, by UniProt entry; tags and fusion partners are left off. A change or cut given only in a name is not applied to a line headed by its entry.
UniProt Q13547: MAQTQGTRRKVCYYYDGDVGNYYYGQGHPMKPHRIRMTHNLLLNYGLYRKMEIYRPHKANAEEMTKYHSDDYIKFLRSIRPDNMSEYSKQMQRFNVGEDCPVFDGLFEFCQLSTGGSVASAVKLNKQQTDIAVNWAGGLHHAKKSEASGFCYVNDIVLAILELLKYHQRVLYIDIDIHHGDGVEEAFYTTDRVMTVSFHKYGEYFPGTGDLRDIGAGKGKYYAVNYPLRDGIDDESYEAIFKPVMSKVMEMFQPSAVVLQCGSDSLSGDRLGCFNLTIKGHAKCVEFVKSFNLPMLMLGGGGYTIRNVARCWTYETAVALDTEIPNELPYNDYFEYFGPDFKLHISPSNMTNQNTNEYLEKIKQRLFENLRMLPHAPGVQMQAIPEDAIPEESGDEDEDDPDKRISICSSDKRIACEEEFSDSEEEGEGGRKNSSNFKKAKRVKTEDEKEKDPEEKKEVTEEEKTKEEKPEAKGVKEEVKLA
UniProt Q9Z2D8: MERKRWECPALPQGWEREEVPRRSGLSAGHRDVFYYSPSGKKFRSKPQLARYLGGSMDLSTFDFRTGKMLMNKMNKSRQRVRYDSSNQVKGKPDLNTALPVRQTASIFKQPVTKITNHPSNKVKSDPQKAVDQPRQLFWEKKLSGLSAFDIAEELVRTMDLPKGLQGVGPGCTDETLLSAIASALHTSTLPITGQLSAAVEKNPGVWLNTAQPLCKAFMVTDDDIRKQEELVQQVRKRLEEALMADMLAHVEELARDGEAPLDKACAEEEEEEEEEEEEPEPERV
UniProt Q9UBB5: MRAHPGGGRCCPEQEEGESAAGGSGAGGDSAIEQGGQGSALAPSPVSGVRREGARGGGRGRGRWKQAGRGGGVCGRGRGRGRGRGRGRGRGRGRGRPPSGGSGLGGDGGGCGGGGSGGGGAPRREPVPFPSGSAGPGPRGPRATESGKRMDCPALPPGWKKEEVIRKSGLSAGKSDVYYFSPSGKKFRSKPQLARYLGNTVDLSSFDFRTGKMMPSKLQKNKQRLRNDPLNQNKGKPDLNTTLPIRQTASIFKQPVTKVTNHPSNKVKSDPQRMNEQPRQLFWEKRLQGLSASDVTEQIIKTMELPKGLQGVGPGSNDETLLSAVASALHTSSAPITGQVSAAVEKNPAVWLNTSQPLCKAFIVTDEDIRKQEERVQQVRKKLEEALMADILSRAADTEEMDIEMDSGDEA
UniProt Q6PDQ2: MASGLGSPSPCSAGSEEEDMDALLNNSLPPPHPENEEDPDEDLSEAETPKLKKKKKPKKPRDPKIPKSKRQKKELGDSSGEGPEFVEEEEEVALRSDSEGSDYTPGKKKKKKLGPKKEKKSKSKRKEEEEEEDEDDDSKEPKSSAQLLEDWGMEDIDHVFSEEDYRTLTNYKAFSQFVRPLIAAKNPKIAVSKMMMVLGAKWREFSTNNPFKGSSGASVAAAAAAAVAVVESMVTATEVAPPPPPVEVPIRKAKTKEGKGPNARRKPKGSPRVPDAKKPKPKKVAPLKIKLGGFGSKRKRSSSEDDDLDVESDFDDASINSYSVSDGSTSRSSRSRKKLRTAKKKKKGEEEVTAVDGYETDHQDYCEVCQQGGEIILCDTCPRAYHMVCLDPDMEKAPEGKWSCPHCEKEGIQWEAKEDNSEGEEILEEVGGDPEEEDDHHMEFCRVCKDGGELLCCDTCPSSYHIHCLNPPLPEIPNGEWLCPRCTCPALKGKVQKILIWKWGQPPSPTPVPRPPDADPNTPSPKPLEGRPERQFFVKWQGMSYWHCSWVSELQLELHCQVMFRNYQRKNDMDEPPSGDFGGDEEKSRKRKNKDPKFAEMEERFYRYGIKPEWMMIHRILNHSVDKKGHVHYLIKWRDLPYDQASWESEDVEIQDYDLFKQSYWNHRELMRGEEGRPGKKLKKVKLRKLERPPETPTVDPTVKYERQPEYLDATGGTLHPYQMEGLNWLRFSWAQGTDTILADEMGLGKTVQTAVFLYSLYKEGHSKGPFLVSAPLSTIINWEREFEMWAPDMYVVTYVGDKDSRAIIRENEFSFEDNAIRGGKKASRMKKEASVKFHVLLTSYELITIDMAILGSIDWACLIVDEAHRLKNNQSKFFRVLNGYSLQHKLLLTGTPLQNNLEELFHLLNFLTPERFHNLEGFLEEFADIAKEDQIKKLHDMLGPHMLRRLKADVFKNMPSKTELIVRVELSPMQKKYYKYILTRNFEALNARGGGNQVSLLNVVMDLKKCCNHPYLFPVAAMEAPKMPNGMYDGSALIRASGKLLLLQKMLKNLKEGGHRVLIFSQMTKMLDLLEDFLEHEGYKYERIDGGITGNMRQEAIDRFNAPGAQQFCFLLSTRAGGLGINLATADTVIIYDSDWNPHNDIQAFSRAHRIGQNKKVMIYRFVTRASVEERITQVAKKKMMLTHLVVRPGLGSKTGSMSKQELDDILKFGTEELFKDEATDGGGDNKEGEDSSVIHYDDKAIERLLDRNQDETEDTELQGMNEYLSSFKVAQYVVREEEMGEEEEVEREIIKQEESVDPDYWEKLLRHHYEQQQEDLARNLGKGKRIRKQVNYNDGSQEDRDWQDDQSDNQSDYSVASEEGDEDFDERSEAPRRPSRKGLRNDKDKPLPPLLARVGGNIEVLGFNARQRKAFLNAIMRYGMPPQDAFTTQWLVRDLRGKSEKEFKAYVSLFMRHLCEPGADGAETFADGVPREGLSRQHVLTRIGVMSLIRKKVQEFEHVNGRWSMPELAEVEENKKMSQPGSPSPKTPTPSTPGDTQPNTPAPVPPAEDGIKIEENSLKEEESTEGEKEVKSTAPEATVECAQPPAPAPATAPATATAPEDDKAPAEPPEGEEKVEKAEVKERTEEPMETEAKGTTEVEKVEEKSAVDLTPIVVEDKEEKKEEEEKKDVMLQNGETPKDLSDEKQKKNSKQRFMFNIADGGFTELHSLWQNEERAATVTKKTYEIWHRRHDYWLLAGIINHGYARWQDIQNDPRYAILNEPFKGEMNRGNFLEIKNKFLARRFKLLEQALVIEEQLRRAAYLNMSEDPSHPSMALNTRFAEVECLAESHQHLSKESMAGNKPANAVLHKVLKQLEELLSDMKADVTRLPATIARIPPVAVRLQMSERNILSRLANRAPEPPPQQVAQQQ

Row | binding [1] | binding [2] | Substance
1 | binds |  | MBD2, overexpressed in HEK293T cells (from UniProt Q9UBB5 1-411)
2 |  | binds | Chd4 (Mi2b), the core subunit of the NuRD complex, endogenous in mouse cells (from UniProt Q6PDQ2 1-1915) (enzyme)
